The source of these data is patent publication US20190218308A1.

Results are given in words; binding and its absence hold for the method and conditions named. Some entries that bind do so weakly or less than the wild type.

This assay has as its target T1, CD39 mutant 18 (human) (UniProt P49961).
T1 sequence: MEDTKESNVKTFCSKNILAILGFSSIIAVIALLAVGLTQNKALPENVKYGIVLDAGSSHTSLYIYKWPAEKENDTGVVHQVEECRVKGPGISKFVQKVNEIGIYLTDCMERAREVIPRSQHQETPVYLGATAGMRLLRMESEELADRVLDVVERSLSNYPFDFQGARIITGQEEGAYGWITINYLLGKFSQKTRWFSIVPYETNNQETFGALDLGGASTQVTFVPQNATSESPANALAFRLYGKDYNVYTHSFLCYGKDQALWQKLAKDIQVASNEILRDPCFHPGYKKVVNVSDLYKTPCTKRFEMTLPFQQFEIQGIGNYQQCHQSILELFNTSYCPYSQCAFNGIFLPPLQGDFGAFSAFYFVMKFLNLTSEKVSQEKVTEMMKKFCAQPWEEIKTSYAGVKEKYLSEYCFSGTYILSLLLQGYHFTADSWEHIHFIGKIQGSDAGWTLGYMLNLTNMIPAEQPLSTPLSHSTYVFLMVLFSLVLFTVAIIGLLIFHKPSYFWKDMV
The experiment in a line: flow cytometry, Hek-293T cells expressing mutant 18. (Flow cytometry measures light scatter and fluorescence of single cells or particles in a stream.)

B1: antibody I-399 (antibody, V domains shown)
VH: PVQLQQPGAEVVMPGASVKLSCKASGYTFTSFWMNWMRQRPGQGLEWIGEIDPSDFYTNSNQRFKGKATLTVDKSSSTAYMQLSSLTSEDSAVYFCARGDFGWYFDVWGTGTSVTVSS
VL: EIVLTQSPTTMTSSPGEKITFTCSASSSINSNYLHWYQQKPGFSPKLLIYRTSNLASGVPTRFSGSGSGTSYSLTIGTMEAEDVATYYCQQGSSLPRTFGGGTKLEIK
As for B1, the binding result was “binds”.
